Results are given in words; binding and its absence hold for the method and conditions named. In cells and extracts the contact can be indirect. These calls come from enrichment with a bait or labelling near it, and not all partners need be listed.
Experiments:
Assay in all cases: affinity purification with mass spectrometry; biotinylated unmodified or mono/di/tri-methyl-lysine YBX1-K264 peptides incubated with A549 cell lysates; bound proteins analysed by LC-MS/MS; only the target purified
[1] = molecular target: T1, biotinylated tri-methyl-lysine (YBX1-K264) peptide
T1 sequence (peptide, tri-methyl-lysine at K264; biotin (position not stated)): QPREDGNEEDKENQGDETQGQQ

[2] = molecular target: T2, biotinylated di-methyl-lysine (YBX1-K264) peptide
T2 sequence (peptide, di-methyl-lysine at K264; biotin (position not stated)): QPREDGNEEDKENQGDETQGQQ

[3] = molecular target: T3, biotinylated mono-methyl-lysine (YBX1-K264) peptide
T3 sequence (peptide, mono-methyl-lysine at K264; biotin (position not stated)): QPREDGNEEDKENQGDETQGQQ

Measured: binding

B1: SET domain containing 3 (enzyme, UniProt Q86TU7 1-594)
chain: MGKKSRVKTQKSGTGATATVSPKEILNLTSELLQKCSSPAPGPGKEWEEYVQIRTLVEKIRKKQKGLSVTFDGKREDYFPDLMKWASENGASVEGFEMVNFKEEGFGLRATRDIKAEELFLWVPRKLLMTVESAKNSVLGPLYSQDRILQAMGNIALAFHLLCERASPNSFWQPYIQTLPSEYDTPLYFEEDEVRYLQSTQAIHDVFSQYKNTARQYAYFYKVIQTHPHANKLPLKDSFTYEDYRWAVSSVMTRQNQIPTEDGSRVTLALIPLWDMCNHTNGLITTGYNLEDDRCECVALQDFRAGEQIYIFYGTRSNAEFVIHSGFFFDNNSHDRVKIKLGVSKSDRLYAMKAEVLARAGIPTSSVFALHFTEPPISAQLLAFLRVFCMTEEELKEHLLGDSAIDRIFTLGNSEFPVSWDNEVKLWTFLEDRASLLLKTYKTTIEEDKSVLKNHDLSVRAKMAIKLRLGEKEILEKAVKSAAVNREYYRQQMEEKAPLPKYEESNLGLLESSVGDSRLPLVLRNLEEEAGVQDALNIREAISKAKATENGLVNGENSIPNGTRSENESLNQESKRAVEDAKGSSSDSTAGVKE
binds: all assays above

B2: METTL13 (enzyme, UniProt Q8N6R0 1-699)
chain: MNLLPKSSREFGSVDYWEKFFQQRGKKAFEWYGTYLELCGVLHKYIKPREKVLVIGCGNSELSEQLYDVGYRDIVNIDISEVVIKQMKECNATRRPQMSFLKMDMTQMEFPDASFQVVLDKGTLDAVLTDEEEKTLQQVDRMLAEVGRVLQVGGRYLCISLAQAHILKKAVGHFSREGWMVRVHQVANSQDQVLEAEPQFSLPVFAFIMTKFRPVPGSALQIFELCAQEQRKPVRLESAERLAEAVQERQQYAWLCSQLRRKARLGSVSLDLCDGDTGEPRYTLHVVDSPTVKPSRDNHFAIFIIPQGRETEWLFGMDEGRKQLAASAGFRRLITVALHRGQQYESMDHIQAELSARVMELAPAGMPTQQQVPFLSVGGDIGVRTVQHQDCSPLSGDYVIEDVQGDDKRYFRRLIFLSNRNVVQSEARLLKDVSHKAQKKRKKDRKKQRPADAEDLPAAPGQSIDKSYLCCEHHKAMIAGLALLRNPELLLEIPLALLVVGLGGGSLPLFVHDHFPKSCIDAVEIDPSMLEVATQWFGFSQSDRMKVHIADGLDYIASLAGGGEARPCYDVIMFDVDSKDPTLGMSCPPPAFVEQSFLQKVKSILTPEGVFILNLVCRDLGLKDSVLAGLKAVFPLLYVRRIEGEVNEILFCQLHPEQKLATPELLETAQALERTLRKPGRGWDDTYVLSDMLKTVKIV
binds: all assays above

B3: TRMT112 (protein, UniProt Q9UI30 1-125)
chain: MKLLTHNLLSSHVRGVGSRGFPLRLQATEVRICPVEFNPNFVARMIPKVEWSAFLEAADNLRLIQVPKGPVEGYEENEEFLRTMHHLLLEVEVIEGTLQCPESGRMFPISRGIPNMLLSEEETES
binds: all assays above

— article PMC8996536
